Measurements reported in PubChem BioAssay AID504791 (Drosophila RNAi Screening Center, 2011).
Aim: 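Genes whose knock-down strengthens or weakens small-RNA reporter silencing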 (primary screen). System: Drosophila S2-derived reporter cells. Knock-down reagent: long dsRNA against Drosophila genes, about 150-250 ng dsRNA per well (siRNA assay); about 80-120 ng (miRNA assay). Timing: about 5 days (siRNA assay); about 4 days (miRNA assay). Conditions: copper sulfate induction of reporters: 25 µM (siRNA assay); 200 mM stated (miRNA assay), 1-2 days before reading. Read-out: 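Per-well ratio of Renilla over firefly light, expressed relative to that plate's average ratio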. Hit rule: 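a well was a first-pass pick when its plate-scaled ratio rose above 1.5 (siRNA assay) or 1.6 (miRNA assay), or dropped below 0.6; a gene counted only if two separate dsRNAs agreed on retest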.
The screen tested about 23,000 reagents; shown is a random part of those with a known target gene and a result. In the full data, 199 (0.86%) are marked active. 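Plate-scaled ratios behind the calls are not deposited; printed light signals are raw; many rows marked increased or decreased are still called inactive.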 Unmarked entries are inactive. A plus sign joins genes that one reagent is predicted to hit. The record does not give: the direction of the score.

| gene | amplicon | stable assay Renilla, run 1 (luminescence) | stable assay firefly, run 1 (luminescence) |
| --- | --- | --- | --- |
| crm | DRSC18754 | 4055 | 3.41e5 |
| CG31102 | DRSC14260 | 6027 | 2.77e5 |
| Mst57Db | DRSC21551 | 10582 | 6.32e5 |
| UGP + PGRP-LF | DRSC10418 | 6243 | 4.23e5 |
| CG42397 | DRSC09147 | 4147 | 3.05e5 |
| CG16820 | DRSC02522 | 11588 | 1.20e6 |
| CG11456 | DRSC11665 | 9298 | 3.48e5 |
| CG15221 | DRSC19659 | 5323 | 3.95e5 |
| CG6567 + CG42394 | DRSC22241 | 9742 | 6.25e5 |
| CenG1A | DRSC02538 | 8079 | 4.16e5 |
| CenG1A | DRSC03505 | 7375 | 4.08e5 |
| CenG1A | DRSC03506 | 8046 | 3.73e5 |
| Rabex-5 | DRSC08628 | 10055 | 3.20e5 |
| mRpL47 | DRSC16827 | 6315 | 3.22e5 |
| Mnt | DRSC17894 | 6895 | 3.61e5 |
| Mnt | DRSC18480 | 6134 | 3.41e5 |
| Task6 | DRSC16530 | 6574 | 3.67e5 |
| Acp1 | DRSC01854 | 6844 | 4.01e5 |

A portion from the list above, for reference:
| gene | amplicon | stable assay Renilla, run 1 (luminescence) | stable assay firefly, run 1 (luminescence) |
| --- | --- | --- | --- |
| CenG1A | DRSC03505 | 7375 | 4.08e5 |
| CenG1A | DRSC03506 | 8046 | 3.73e5 |
| Rabex-5 | DRSC08628 | 10055 | 3.20e5 |
| mRpL47 | DRSC16827 | 6315 | 3.22e5 |
| Mnt | DRSC17894 | 6895 | 3.61e5 |

Further results follow:
| gene | amplicon | stable assay Renilla, run 1 (luminescence) | stable assay firefly, run 1 (luminescence) |
| --- | --- | --- | --- |
| CG12009 | DRSC08217 | 8067 | 4.57e5 |
| CG9393 | DRSC16486 | 9040 | 5.12e5 |
| CDase | DRSC14932 | 7748 | 3.66e5 |
| vret | DRSC15640 | 8743 | 3.59e5 |
| Ipk1 | DRSC04235 | 10654 | 1.10e6 |
| Ipk1 | DRSC04236 | 6575 | 3.22e5 |
| Ipk1 | DRSC04237 | 6600 | 3.46e5 |
| Zmynd8 | DRSC15310 | 8318 | 3.81e5 |
| CG17377 | DRSC00950 | 4108 | 4.31e5 |
| CG17377 | DRSC02615 | 9992 | 4.16e5 |
| CG17377 | DRSC21811 | 8447 | 4.59e5 |
| CG33655 | DRSC03858 | 4640 | 2.82e5 |
| brv1 | DRSC11076 | 7322 | 3.64e5 |
| CG17344 | DRSC02607 | 6595 | 3.94e5 |
| Cyp4ac3 | DRSC03304 | 10301 | 2.74e5 |
| Tango5 | DRSC18023 | 6331 | 3.87e5 |
